According to patent publication US20150307539A1, “USE OF SULPHATED G[…] PROMOTERS OF NEURITIC GROWTH, M[…] INHIBITING THE PROLIFERATION OF ASTROGLIA AND MICROGLIA” (CONSEJO SUPERIOR DE INVESTIGACIONES CIENTIFICAS (CSIC), priority 2012, published 2015):

System: astrocytes and microglial cells
Assay: Internalisation and subcellular localisation in glial cells
Type: cell-based

SMILES	cell penetration and localisation by fluorescence (astrocytes and microglial cells, no signal in the nucleus)	distribution between cytoplasmic and membrane fractions (cells treated with 30 μM, cell fractionation, MS detection)
CCCCCCCC/C=C\CCCCCCCCO[C@H]1O[C@H](COS(=O)(=O)[O-])[C@@H](O)[C@H](O)[C@H]1NC(=O)CCCCCNc1ccc([N+](=O)[O-])c2nonc12.[K+] [IG20-NBD, potash from oleyl 2-[6-(7-nitrobenzofurazan)-aminohexanamide]-6-O-(oxo-sulphonyl)-α-D-glucosaminide]	penetrates the glial cells and accumulates in the cytosol	–
CCCCCCCC/C=C\CCCCCCCCO[C@H]1O[C@H](COS(=O)(=O)[O-])[C@@H](O)[C@H](O)C1NC(C)=O.[K+] (stereo partly drawn) [IG-20, potash from oleyl N-acetyl-6-O-(oxo-sulphonyl)-α-D-glucosaminide]	–	cytoplasmic fractions were enriched in the IG-20 compound, which was weakly detected in the membrane fractions
